Measured values as given in paper PMC8702954.

Experiments:
[1] = test system: GST-ONAC096 (Oryza sativa (rice)); assay: EMSA; details: EMSA: 10 uL, 1x LightShift kit binding buffer (composition, pH and salt not given), 2 ug protein, 28 C 20 min, 6% native PAGE; recombinant protein; protein details: N-terminal GST (pGEX-4T-3); label: biotin
[2] = test system: GST-ONAC096 (Oryza sativa (rice)); assay: competition with a labelled probe; details: EMSA: 10 uL, 1x LightShift kit binding buffer (composition, pH and salt not given), 2 ug protein, 28 C 20 min, 6% native PAGE, recombinant protein, protein details: N-terminal GST (pGEX-4T-3)

Row | Sequence | binding result [1] | also measured
1 | AAAACACGTATACAGCCAAAATACGTTACACGGTGG (double strand) [wP2 (OsRap2.6 promoter)] | binds | 
2 | AAAACACGTATACAGCCAAAATACGTTACACGGTGG (double strand) [wP2 unlabeled competitor] |  | binding result ([2]; 100x excess unlabeled against biotin-wP2 (EMSA)): binds
3 | GTAAGGTGGATCCACGGGTCAGGCATGG (double strand) [wP4 (OsRap2.6 promoter)] | binds | 
4 | GTAAGGTGGATCCACGGGTCAGGCATGG (double strand) [wP4 unlabeled competitor] |  | binding result ([2]; 100x excess unlabeled against biotin-wP4 (EMSA)): binds

Construct, isoform or probe ends are uncertain for at least one entry.
